{"sequences": {"note": "Sequences of proteins named here, by UniProt entry; tags and fusion partners are left off. A change or cut given only in a name is not applied to a line headed by its entry.", "UniProt P35637, whole entry": "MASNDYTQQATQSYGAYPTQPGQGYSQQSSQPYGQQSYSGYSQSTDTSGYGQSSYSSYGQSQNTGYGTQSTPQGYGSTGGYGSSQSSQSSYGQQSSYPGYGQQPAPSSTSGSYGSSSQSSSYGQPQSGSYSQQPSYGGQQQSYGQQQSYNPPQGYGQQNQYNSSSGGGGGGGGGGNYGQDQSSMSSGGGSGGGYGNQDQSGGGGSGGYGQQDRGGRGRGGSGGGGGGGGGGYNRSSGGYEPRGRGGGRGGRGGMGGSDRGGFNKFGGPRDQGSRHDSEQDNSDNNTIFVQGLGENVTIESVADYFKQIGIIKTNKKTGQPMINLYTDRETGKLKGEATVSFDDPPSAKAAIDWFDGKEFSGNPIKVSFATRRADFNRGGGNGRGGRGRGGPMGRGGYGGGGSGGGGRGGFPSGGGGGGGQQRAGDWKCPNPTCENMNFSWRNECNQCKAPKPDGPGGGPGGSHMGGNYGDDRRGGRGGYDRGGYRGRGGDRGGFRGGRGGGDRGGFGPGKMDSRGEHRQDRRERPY", "UniProt P00573, whole entry, looked up, stated change not applied": "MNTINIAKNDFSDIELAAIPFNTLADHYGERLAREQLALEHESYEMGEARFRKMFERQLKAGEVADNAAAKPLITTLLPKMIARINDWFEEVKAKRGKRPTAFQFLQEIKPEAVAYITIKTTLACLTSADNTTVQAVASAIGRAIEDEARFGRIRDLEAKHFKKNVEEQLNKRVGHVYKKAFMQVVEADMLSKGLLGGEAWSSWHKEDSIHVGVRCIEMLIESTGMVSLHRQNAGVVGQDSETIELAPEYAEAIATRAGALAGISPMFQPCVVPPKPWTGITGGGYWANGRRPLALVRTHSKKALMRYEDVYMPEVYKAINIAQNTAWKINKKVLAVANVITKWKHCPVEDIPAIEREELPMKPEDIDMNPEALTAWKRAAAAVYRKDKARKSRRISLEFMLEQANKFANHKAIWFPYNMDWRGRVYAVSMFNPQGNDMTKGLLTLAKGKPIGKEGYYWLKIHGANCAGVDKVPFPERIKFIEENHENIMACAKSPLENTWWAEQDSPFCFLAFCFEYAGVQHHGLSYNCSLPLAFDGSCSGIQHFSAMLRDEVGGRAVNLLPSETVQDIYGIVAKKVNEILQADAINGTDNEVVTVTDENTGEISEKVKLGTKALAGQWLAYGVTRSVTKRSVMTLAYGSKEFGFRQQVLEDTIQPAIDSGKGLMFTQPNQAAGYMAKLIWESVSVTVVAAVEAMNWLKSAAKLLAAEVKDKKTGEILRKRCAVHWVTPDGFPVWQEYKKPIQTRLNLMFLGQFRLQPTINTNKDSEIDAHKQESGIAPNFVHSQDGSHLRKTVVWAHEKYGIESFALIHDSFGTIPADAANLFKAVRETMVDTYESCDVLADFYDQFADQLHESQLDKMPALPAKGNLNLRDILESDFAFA"}, "source": "paper doi:10.1101/2022.08.11.503633", "target": "FUS (FUSed in sarcoma), His-MBP-FUS (UniProt P35637)", "experiment": "co-IP", "note": "These are yes or no findings as the source states them, for the method shown.", "data": [{"substance": "T7 phage RNA polymerase (P266L), 6xHis-tagged (from UniProt P00573 1-883) (enzyme)", "values": [{"measurement": "binding", "result": "no binding"}]}]}
